Data from PubChem BioAssay (EPA / NIEHS).
Inconclusive results, whose numbers are uncertain, are shown with a selection of clear calls. A potency beside an inconclusive call is a rough fit, not a confirmed value. The source made the active and inactive calls. How the source made its calls: active means hit-call score of the fitted dose curve at least 0.9, where 1 is the maximum; inconclusive means response in the unintended direction; inactive means score below 0.9.

Sequences of proteins named here, by UniProt entry; tags and fusion partners are left off. A change or cut given only in a name is not applied to a line headed by its entry.
UniProt Q2NNR5: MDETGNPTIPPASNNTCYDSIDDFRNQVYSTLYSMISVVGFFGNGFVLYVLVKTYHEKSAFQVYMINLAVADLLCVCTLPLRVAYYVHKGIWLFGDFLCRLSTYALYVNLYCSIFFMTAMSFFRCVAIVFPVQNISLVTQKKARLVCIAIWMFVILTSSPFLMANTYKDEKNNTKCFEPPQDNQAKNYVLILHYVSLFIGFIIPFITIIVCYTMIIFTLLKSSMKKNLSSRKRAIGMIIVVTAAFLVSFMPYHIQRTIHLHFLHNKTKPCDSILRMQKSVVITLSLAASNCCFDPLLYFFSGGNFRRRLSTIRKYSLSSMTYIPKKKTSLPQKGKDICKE

These compounds were tested against guinea pig Leukotriene D4 Receptor (LTD4), CYSLTR1 (gene 100135514) (UniProt Q2NNR5) (assay: NVS_GPCR_gLTD4: NovaScreen (NVS) G Protein-Coupled Receptor Assay for guinea pig Leukotriene D4 Receptor (LTD4) (AID 2283248)).
Method: NVS_GPCR_gLTD4 is a biochemical, single-readout assay that uses extracted gene-proteins from Guinea pig lung membranes in a tissue-based cell-free assay. Measurements were taken 1 hour after chemical dosing in a 48-well plate.NVS_GPCR_gLTD4 is one of one assay component(s) measured or calculated from the NVS_GPCR_gLTD4 assay. It is designed to make measurements of radioligand binding, a form of binding reporter, as detected with scintillation counting signals by Filter-based radiodetection technology.Data from the assay component NVS_GPCR_gLTD4 was analyzed into 1 assay endpoint. This assay endpoint, NVS_GPCR_gLTD4, was analyzed in the positive analysis fitting direction relative to DMSO as the negative control and baseline of activity. Using a type of binding reporter, loss-of-signal activity can be used to understand changes in the binding as they relate to the gene Cysltr1. Furthermore, this assay endpoint can be referred to as a primary readout, because the performed assay has only produced 1 assay endpoint. To generalize the intended target to other relatable targets, this assay endpoint is annotated to the gpcr intended target family, where the subfamily is rhodopsin-like receptor.
Binding assays used specific radioligands (tritiated, iodinated) with non-radioactive competitive displacement ligands in agonist or antagonist protocols (as indicated) and various reference compounds and inhibitors to titrate specific binding to receptors and transporters. Most enzyme assays (CYPs, kinases, phosphatases, proteases, HDACs) used recombinant protein and specific substrates (fluorescence mostly, some colorimetric and radioactive) and inhibitors, followed by a biochemical separation of substrate and product. All assays for the biochemical HTS were initially run in duplicate at a single concentration (10 uM for CYP450 assays and 25 uM for all others). Assay-chemical combinations meeting a pre-defined threshold (e.g., 30% inhibition and other criteria defined below) were then run in singleton concentration-response format with maximum concentration of 20 uM for CYPs and 50 uM for all others. Each assay was run with positive and negative controls, and concurrent controls on every plate. The follow-up (secondary) screen tested active chemical-pairs in concentration series, as well as a few additional assays not tested in the primary screen, some selected negative inactives, and several cases re-run in the concentration series for confirmatory purposes.

Structure (SMILES)	AC50
CCCCCCCCCCCCCCOS(=O)(=O)O	active: 9.7 µM
O=C(c1ccc(O)cc1O)c1ccc(O)cc1O	inconclusive: 0.149 µM
CC(CC=O)CCCC(C)(C)O (stereo not drawn)	inconclusive: 0.156 µM
COCCOC[C@H](CC1(C(=O)NC2CCC(C(=O)O)CC2)CCCC1)C(=O)Oc1ccc2c(c1)CCC2 (stereo partly drawn)	inconclusive: 25 µM
O=C1C=CC(=O)N1c1ccc(Cc2ccc(N3C(=O)C=CC3=O)cc2)cc1	inconclusive: 0.112 µM
O=C(c1ccc(OCCN2CCCCC2)cc1)c1c(-c2ccc(O)cc2)sc2cc(O)ccc12	inconclusive: 43.9 µM
CCCCCOC(=O)COc1cc(N2C(=O)C3=C(CCCC3)C2=O)c(F)cc1Cl	inconclusive: 0.259 µM
C=C(C)C1CC=C(C)CC1 (stereo not drawn)	inconclusive: 25.8 µM
CCN(Cc1cccnc1)C(=O)c1cccc(Cl)c1[C@]1(C)C(=O)N(Cc2ccc(OC)cc2OC)c2ccc(Cl)cc21	active: 9.32 µM
c1ccc(Sc2ccccc2)cc1	inconclusive: 25 µM
NCc1cccc(C2CCN(C(=O)c3ccc(C#Cc4ccccc4F)o3)CC2)c1	inconclusive: 25 µM
O=C(N[C@H](CO)[C@H](O)c1ccc([N+](=O)[O-])cc1)C(Cl)Cl	inconclusive: 0.166 µM
Cc1cc(C)n(CO)n1	inconclusive: 6.52 µM
